Assay [1] concerns the target HOXA1 (mouse) (UniProt P09022). The experiment in a line: split reporter; BiFC with VN173 and VC155 moieties of Venus in transfected COS-7 cells, fixed 24 h after transfection, confocal microscopy; positive when the signal was at least 3 times that of the 3 control conditions.
Assay [2] deals with HOXA2 (mouse) (UniProt P31245). Described as above.
Assay [3] has as its target HOXA1 (mouse) (UniProt P09022). The experiment in a line: pull-down; glutathione coprecipitation: HEK293T cells co-transfected with plasmids for a GST-tagged and a FLAG-tagged protein; lysis in IPLS buffer (20 mM Tris-HCl pH 7.5, 120 mM NaCl, 0.5 mM EDTA, 0.5% NP40, 10% glycerol); overnight on glutathione-sepharose beads at 4 °C; Western blot with anti-FLAG and anti-GST. On the technique in general: A western blot detects proteins with antibodies after separation by electrophoresis.

The chains behind the UniProt entries cited, without tags or fusion partners. Where a name states a change or a piece, a line headed by the entry shows the natural chain unless it says otherwise.
UniProt P09022: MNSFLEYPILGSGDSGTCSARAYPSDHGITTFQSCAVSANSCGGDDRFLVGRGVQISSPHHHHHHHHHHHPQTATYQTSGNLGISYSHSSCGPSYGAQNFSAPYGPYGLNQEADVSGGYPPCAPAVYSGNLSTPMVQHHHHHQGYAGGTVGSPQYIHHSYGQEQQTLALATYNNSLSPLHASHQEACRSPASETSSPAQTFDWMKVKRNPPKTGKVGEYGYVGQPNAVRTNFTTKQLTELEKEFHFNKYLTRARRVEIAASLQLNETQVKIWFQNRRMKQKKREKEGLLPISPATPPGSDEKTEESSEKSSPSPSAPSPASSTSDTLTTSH
UniProt P31245: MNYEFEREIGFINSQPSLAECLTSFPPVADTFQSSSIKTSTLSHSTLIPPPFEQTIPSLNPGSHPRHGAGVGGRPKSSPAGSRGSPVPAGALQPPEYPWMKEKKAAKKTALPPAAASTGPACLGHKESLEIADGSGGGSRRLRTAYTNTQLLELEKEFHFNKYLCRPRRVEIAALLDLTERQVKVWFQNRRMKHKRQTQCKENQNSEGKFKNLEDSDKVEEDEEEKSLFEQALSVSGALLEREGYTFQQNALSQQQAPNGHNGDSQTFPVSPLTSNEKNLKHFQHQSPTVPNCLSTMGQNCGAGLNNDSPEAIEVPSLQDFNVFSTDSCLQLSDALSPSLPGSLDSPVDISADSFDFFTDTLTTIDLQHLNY
UniProt O60479: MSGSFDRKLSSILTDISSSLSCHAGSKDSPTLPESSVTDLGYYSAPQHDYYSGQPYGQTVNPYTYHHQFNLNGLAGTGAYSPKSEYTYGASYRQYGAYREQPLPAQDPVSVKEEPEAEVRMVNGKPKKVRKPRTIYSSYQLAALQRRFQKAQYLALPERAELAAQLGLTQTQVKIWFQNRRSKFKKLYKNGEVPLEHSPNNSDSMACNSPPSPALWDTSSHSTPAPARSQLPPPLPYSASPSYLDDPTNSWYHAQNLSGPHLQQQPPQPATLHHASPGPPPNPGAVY

For assay [4], the target named is HOXA1^E243A (mouse) (UniProt P09022). The assay is described as above.
Assay [5] has the same target. The experiment in a line: split reporter; BiFC with VN173 and VC155 moieties of Venus in transfected COS-7 cells, fixed 24 h after transfection, confocal microscopy; positive when the signal was at least 3 times that of the 3 control conditions.
For the next assay, the target named is HOXA1^E243G (mouse) (UniProt P09022). The assay is described as above.
Assay [6] addresses HOXA1 (mouse) (UniProt P09022). The assay is described as above. This is another data set of the same source.
The target in assay [7] is HOXA2 (mouse) (UniProt P31245). The description is as above. The source holds these as a separate data set.

Like-named read-outs stand apart in the source and are kept apart here. Results are given in words; binding and its absence hold for the method and conditions named. Binding seen in cells or lysates may run through a third protein. Some results given as binding are weak or reduced against the parent protein; the word gives no strength.

For DLX3 (from UniProt O60479 1-287), the binding entry in the assay with HOXA1 (mouse) [1] and with HOXA2 (mouse) [2] was “binds” in each case.

HOXA1 (from UniProt P09022 1-331): the binding result with HOXA1 (mouse) [3] and with HOXA1 (mouse) [1] was “binds” throughout.

On to HOXA1^E243A (from UniProt P09022 1-331), for which the binding entry in the assay with HOXA1 (mouse) [3], with HOXA1^E243A (mouse) [4], with HOXA1 (mouse) [1] and with HOXA1^E243A (mouse) [5] was “binds” each time.

For HOXA1^E243G (from UniProt P09022 1-331), the binding entry in the assay with HOXA1 (mouse) [1] and with HOXA1^E243G (mouse) was “binds” each time.

For HOXA2 (from UniProt P31245 1-372), the binding result with HOXA1 (mouse) [3], with HOXA1 (mouse) [1] and in the assay with HOXA2 (mouse) [2] was “binds” in each case.

B1: PBX1A (protein, UniProt P40424-1 1-430)
chain: MDEQPRLMHSHAGVGMAGHPGLSQHLQDGAGGTEGEGGRKQDIGDILQQIMTITDQSLDEAQARKHALNCHRMKPALFNVLCEIKEKTVLSIRGAQEEEPTDPQLMRLDNMLLAEGVAGPEKGGGSAAAAAAAAASGGAGSDNSVEHSDYRAKLSQIRQIYHTELEKYEQACNEFTTHVMNLLREQSRTRPISPKEIERMVSIIHRKFSSIQMQLKQSTCEAVMILRSRFLDARRKRRNFNKQATEILNEYFYSHLSNPYPSEEAKEELAKKCGITVSQVSNWFGNKRIRYKKNIGKFQEEANIYAAKTAVTATNVSAHGSQANSPSTPNSAGSSSSFNMSNSGDLFMSVQSLNGDSYQGAQVGANVQSQVDTLRHVISQTGGYSDGLAASQMYSPQGISANGGWQDATTPSSVTSPTEGPGSVHSDTSN
For the molecule B1, the binding result in the assay with HOXA1 (mouse) [6] and in the assay with HOXA2 (mouse) [7] was “binds” each time.

The values above are taken from PMC11721573.
